Laboratory results taken from patent US20020155500A1 (CURIS, published 2002).
These are yes or no findings as the source states them, for the method shown. Some binding calls cover weakened binding; strength is not graded here.

Protein sequences, listed by entry. Tags and fused reporters are not part of them. Lines headed by an entry give the natural chain unless they say otherwise; changes in a name come on top.
UniProt P36898: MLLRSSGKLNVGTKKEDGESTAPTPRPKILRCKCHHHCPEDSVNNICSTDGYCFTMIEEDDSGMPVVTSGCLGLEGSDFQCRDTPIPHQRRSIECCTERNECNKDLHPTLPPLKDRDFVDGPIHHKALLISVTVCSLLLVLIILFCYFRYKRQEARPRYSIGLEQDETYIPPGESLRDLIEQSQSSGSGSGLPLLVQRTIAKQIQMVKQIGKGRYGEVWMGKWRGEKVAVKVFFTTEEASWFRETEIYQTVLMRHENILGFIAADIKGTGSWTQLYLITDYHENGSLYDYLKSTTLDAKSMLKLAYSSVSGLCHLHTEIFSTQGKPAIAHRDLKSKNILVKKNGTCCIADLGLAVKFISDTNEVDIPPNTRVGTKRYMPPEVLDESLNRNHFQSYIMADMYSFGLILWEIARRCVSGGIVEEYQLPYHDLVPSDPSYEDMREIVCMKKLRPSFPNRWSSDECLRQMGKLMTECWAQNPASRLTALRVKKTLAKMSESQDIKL

Columns and labels:
[1] = target: ALK-6 (transfected cDNA, on cells) (Mus musculus (Mouse)) (UniProt P36898); test: affinity cross-linking of ^125I-BMP4 to COS-1 cells transfected with ALK6 and daf-4 cDNA; immunoprecipitation with ALK antiserum, autoradiography (qualitative grade)
[2] = target: ALK-6 (transfected cDNA, on cells) (Mus musculus (Mouse)) (UniProt P36898); test: affinity cross-linking of ^125I-BMP4 to COS-1 cells transfected with ALK6 cDNA without daf-4; immunoprecipitation with ALK antiserum, autoradiography (qualitative grade)
[3] = target: ALK-6 (transfected cDNA, on cells) (Mus musculus (Mouse)) (UniProt P36898); test: affinity cross-linking on transfected COS-1 cells, without and with daf-4

Measured: binding

B1: BMP-4 (ligand, UniProt P12644 293-408, looked up)
chain: SPKHHSQRARKKNKNCRRHSLYVDFSDVGWNDWIVAPPGYQAFYCHGDCPFPLADHLNSTNHAIVQTLVNSVNSSIPKACCVPTELSAISMLYLDEYDKVVLKNYQEMVVEGCGCR
modifications: ^125I label (radioiodinated, residue not stated)
binds: [1] | [2] | [3]
